Test results reported in publication doi:10.1101/2025.11.10.25339594.
Results are given in words; binding and its absence hold for the method and conditions named. Binding seen in cells or lysates may run through a third protein. Some binding calls cover weakened binding; strength is not graded here.

Protein sequences, listed by entry. Tags and fused reporters are not part of them.
UniProt Q00534: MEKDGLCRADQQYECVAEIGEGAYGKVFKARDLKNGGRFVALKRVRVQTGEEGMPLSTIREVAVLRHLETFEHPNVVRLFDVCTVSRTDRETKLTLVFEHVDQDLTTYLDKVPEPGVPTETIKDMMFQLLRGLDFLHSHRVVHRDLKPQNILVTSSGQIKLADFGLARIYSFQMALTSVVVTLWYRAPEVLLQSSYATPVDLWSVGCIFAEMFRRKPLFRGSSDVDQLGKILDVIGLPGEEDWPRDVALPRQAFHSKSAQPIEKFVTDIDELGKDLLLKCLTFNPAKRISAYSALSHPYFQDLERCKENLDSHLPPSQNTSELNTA
UniProt P11802: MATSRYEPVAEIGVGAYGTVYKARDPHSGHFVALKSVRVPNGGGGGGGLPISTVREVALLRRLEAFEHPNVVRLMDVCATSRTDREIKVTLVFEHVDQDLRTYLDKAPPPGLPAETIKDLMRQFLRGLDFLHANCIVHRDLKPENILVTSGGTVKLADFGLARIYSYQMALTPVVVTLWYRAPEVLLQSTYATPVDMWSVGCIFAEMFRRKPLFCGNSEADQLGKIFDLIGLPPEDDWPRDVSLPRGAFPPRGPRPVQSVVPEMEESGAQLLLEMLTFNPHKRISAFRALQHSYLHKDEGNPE
UniProt P24385: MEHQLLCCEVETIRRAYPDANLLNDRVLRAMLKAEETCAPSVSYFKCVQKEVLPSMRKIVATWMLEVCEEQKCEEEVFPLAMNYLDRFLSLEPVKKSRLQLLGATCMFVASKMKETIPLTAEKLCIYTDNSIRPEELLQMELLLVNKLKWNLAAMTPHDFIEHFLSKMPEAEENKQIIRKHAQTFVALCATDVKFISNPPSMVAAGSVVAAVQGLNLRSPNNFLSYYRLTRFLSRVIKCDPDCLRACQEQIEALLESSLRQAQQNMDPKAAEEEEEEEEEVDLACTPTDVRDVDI
UniProt P46527: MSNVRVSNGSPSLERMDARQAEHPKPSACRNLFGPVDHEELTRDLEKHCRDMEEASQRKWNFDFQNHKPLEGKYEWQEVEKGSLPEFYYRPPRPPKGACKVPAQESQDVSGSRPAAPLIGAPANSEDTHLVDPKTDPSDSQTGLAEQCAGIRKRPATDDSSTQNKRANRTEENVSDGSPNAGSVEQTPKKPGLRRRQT

Legend:
[1] = biological target: CDK6 (human (endogenous in HNSCC cell lines)) (UniProt Q00534); test: co-IP
[2] = biological target: CDK4 (human (endogenous in HNSCC cell lines)) (UniProt P11802); test: co-IP

Substance | binding [1] | binding [2]
cyclin D1 (from UniProt P24385 1-295) (other; other documents disagree on this pair) | binds | –
p27 (from UniProt P46527 1-198) | – | binds
cyclin D1 (from UniProt P24385 1-295) | – | binds
